Data as given in PubChem BioAssay AID1159584 (Peter MacCallum Cancer Centre, 2016)
This is one part, drawn at random, of about 18,000 reagents. Not given: the amount of reagent, the time to read-out.

- Purpose: 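Knock-downs that harm CDH1-null cells more than parental MCF10A cells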 (primary screen)
- Cell system: human MCF10A breast epithelial cells, parental and CDH1-null
- Knock-down reagent: siRNA against human genes
- Detection: 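Cell viability by CellTiter-Glo ATP luminescence, each line scaled to the mean of mock wells across plates, then CDH1-null over parental ratio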
- Direction: CDH1-null / parental viability ratio: higher = CDH1-null cells survive relatively better than parental; CDH1-null viability vs mock: higher = more viable CDH1-null cells; parental viability vs mock: higher = more viable parental cells

no.	gene knocked down	CDH1-null / parental viability ratio	CDH1-null viability vs mock (fraction of mock)	parental viability vs mock (fraction of mock)
1	ADGRA3	0.84	0.82	0.98
2	RBPMS2	1.29	0.66	0.51
3	LMF1	1.25	0.9	0.72
4	STX3	1.05	0.83	0.79
5	LANCL1	0.77	0.68	0.88
6	SERTAD3	1.54	0.74	0.48
7	MAU2	1.02	0.59	0.58
8	LRIF1	0.77	0.77	1
9	FZD4	0.88	0.94	1.07
10	GOLGA8EP	0.95	1.06	1.11
11	ACKR3	0.8	0.66	0.82
12	C2orf42	0.89	0.76	0.85
13	PDE3A	1.11	1.04	0.94
14	COQ7	0.84	0.8	0.95
15	B2M	0.81	0.68	0.84
16	GPR31	1.41	1.06	0.75
17	FRMPD2	0.92	0.78	0.85
18	GSR	1.2	0.98	0.82
19	MRPL58	1.05	0.8	0.76
20	ECEL1	1.2	0.91	0.76
21	CD300LF	1.05	0.88	0.84
22	ST3GAL5	0.98	0.9	0.92
23	OR2AT4	1.06	0.85	0.8
24	MOGAT2	0.93	0.78	0.84
25	RNF182	0.82	0.72	0.88
26	SCRT2	0.95	0.59	0.62
27	CKAP2	1.02	0.82	0.8
28	SLC38A8	1.02	0.46	0.45
29	SRY	1.04	1.14	1.1
30	ALDH3B2	0.94	0.77	0.82
31	RHOF	1	0.96	0.96
32	RPS17	1.41	0.48	0.34
33	TRIM51BP	0.95	0.9	0.95
34	HROB	0.88	0.76	0.86

The list goes on; the last 2 above are carried over.
no.	gene knocked down	CDH1-null / parental viability ratio	CDH1-null viability vs mock (fraction of mock)	parental viability vs mock (fraction of mock)
33	TRIM51BP	0.95	0.9	0.95
34	HROB	0.88	0.76	0.86
35	GTSF1	0.92	0.92	1
36	HOXC4	0.85	0.74	0.87
37	PTGER1	1.41	1.04	0.74
38	ANXA1	1.03	0.78	0.76
39	INTS1	1.07	0.48	0.45
40	TMC5	1.16	1.04	0.9
41	RBP5	0.86	0.76	0.88
42	AADAT	1	0.96	0.96
43	APLN	0.99	0.7	0.71
44	ADGRV1	0.82	0.94	1.15
45	SLC38A7	1.06	1.06	1
46	RABEPK	1.13	0.87	0.77
47	DLEU7	1.21	1.04	0.86
48	REX1BD	0.61	0.46	0.76
49	BOD1	0.8	0.55	0.69
50	SYCP2L	1.24	0.94	0.76
51	PRMT3	1.04	1.08	1.04
52	TEP1	0.84	0.62	0.74
53	HAS2	1.11	1.02	0.92
54	ALX4	1.04	0.85	0.82
55	KCNJ12	1.1	0.88	0.8
56	COTL1	1.11	0.4	0.36
57	DNAI1	1.13	0.88	0.78
58	RIMKLB	0.96	1.04	1.08
59	HOXB6	1.02	0.92	0.9
60	MYOZ1	1.11	0.6	0.54
61	LRIG3	0.84	0.98	1.16
62	TUBGCP4	1.35	0.62	0.46
63	DENND5B	1.2	0.98	0.82
64	ERCC5	1.1	1.06	0.96
65	CDC42EP2	0.82	0.62	0.76
66	MAGEA6	1.12	1.27	1.13
67	FAM120A	0.76	0.58	0.76
68	SAC3D1	1.06	0.76	0.72
